The values that follow come from US20260049115A1.

In test [1] the target is collagen type I. Briefly: SPR, collagen I on chip. (SPR reads the build-up and loss of mass on a sensor chip optically.)
Test [2] has as its target collagen type I. Briefly: ELISA on plates coated with collagen I. Background: In an ELISA, binding on a coated surface is turned into a signal by an enzyme label.
Test [3] has as its target collagen type I. Briefly: ELISA on plates coated with collagen I [panel C].
The target in test [4] is collagen type III. Briefly: ELISA on plates coated with collagen III [panel C].
The target of test [5] is collagen type III. Briefly: ELISA on plates coated with collagen III.
Test [6] addresses collagen type I. The experiment in a line: ELISA on plates coated with collagen I (n=4) [panel D].
Test [7] has as its target collagen type I. The experiment in a line: ELISA, collagen I coated.

No constants are given. Whether binding was seen depends on the method and setting. For some of these results: A result given as binding can be weak or reduced; the word gives no strength. Tags and fused reporters may be left off the sequences shown.

B1: CBD-CCL4 (human vWF A3 domain and murine CCL4 fusion protein) (protein)
chain: CSQPLDVILLLDGSSSFPASYFDEMKSFAKAFISKANIGPRLTQVSVLQYGSITTIDVPWNVVPEKAHLLSLVDVMQREGGPSQIGDALGFAVRYLTSEMHGARPGASKAVVILVTDVSVDSVDAAADAARSNRVTVFPIGIGDRYDAAQLRILAGPAGDSNVVKLQRIEDLPTMVTLGNSFLHKLCSGFVRIGGGGSGGGGSAPMGSDPPTSCCFSYTSRQLHRSFVMDYYETSSLCSKPAVVFLTKRGRQICANPSEPWVTEYMSDLELNHHHHHH
As to B1, the binding result with collagen type I [1] is listed as “binds”.

B2: wild-type mouse IL-2 (His-tagged) (ligand)
chain: PTSSSTSSSTAEAQQQQQQQQQQQQHLEQLLMDLQELLSRMENYRNLKLPRMLTFKFYLPKQATELKDLQCLEDELGPLRHVLDLTQSKSFQLEDAENFISNIRVTVVKLKGSDNTFECQFDDESATVVDFLRRWIAFCQSIISTSPQ
For B2, the binding entry in the test with collagen type I [2], in the test with collagen type I [3], in the test with collagen type III [4] and with collagen type III [5] was “no binding” in each case.

B3: CBD-fused IL-2 recombinant protein (the vWF A3 domain and mouse IL-2 fusion protein) (protein)
chain: CSQPLDVILLLDGSSSFPASYFDEMKSFAKAFISKANIGPRLTQVSVLQYGSITTIDVPWNVVPEKAHLLSLVDVMQREGGPSQIGDALGFAVRYLTSEMHGARPGASKAVVILVTDVSVDSVDAAADAARSNRVTVFPIGIGDRYDAAQLRILAGPAGDSNVVKLQRIEDLPTMVTLGNSFLHKLCSGFVRIGGGSGGGSPTSSSTSSSTAEAQQQQQQQQQQQQHLEQLLMDLQELLSRMENYRNLKLPRMLTFKFYLPKQATELKDLQCLEDELGPLRHVLDLTQSKSFQLEDAENFISNIRVTVVKLKGSDNTFECQFDDESATVVDFLRRWIAFCQSIISTSPQ
B3: the binding entry with collagen type I [6] and in the test with collagen type I [7] was “binds” throughout.
